Results deposited as PubChem BioAssay AID1259308 (NCATS, 2017).

Assay: 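Knock-downs that increase output of a recombinant reporter protein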 (primary screen)
System: human HEK293 embryonic kidney cells stably expressing firefly luciferase (HEK-CMV-Luc2-Hygro)
Reagents: single siRNA against human genes, 0.8 pmol siRNA per well
Time to read-out: 72 h
Measurement: 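Reporter luminescence and viable-cell signal on separate replicate plates, given as percent of non-targeting control and median/MAD z-scores, plus per-cell luciferase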
Scale: total luciferase, z-score: higher = more reporter protein produced
Hit rule: 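Active when the median/MAD z-score for overall luciferase is greater than 3; a gene was taken forward for validation with new siRNAs if at least two of its three siRNAs passed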
Calls: active = raised luciferase; inactive = no rise
The whole screen tested about 59,000 reagents; this is a random part of them. About 1,510 of them (2.6%) were called active. 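Calls use total luciferase alone and ignore viability, so some active siRNAs may act by altering cell number.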 Entries without a mark were called inactive. The numbers tell different reagents against one gene apart. Not all columns of the deposit are shown. No sequences are given here.

target gene,siRNA no.,"total luciferase, z-score"
SLC49A4,1,-1.6
SLC49A4,2,-0.848
SLC49A4,3,-1.97
COX7A2L (cytochrome c oxidase subunit 7A2 like),1,-0.811
COX7A2L (cytochrome c oxidase subunit 7A2 like),2,-0.341
COX7A2L (cytochrome c oxidase subunit 7A2 like),3,0.271
DNAJC4 (DnaJ heat shock protein family (Hsp40) member C4),1,1.72
DNAJC4 (DnaJ heat shock protein family (Hsp40) member C4),2,0.274
DNAJC4 (DnaJ heat shock protein family (Hsp40) member C4),3,-0.912
CFAP73 (cilia and flagella associated protein 73),1,0.387
CFAP73 (cilia and flagella associated protein 73),2,0.0524
CFAP73 (cilia and flagella associated protein 73),3,0.94
OR51A4 (olfactory receptor family 51 subfamily A member 4),1,0.843
OR51A4 (olfactory receptor family 51 subfamily A member 4),2,-1.17
OR51A4 (olfactory receptor family 51 subfamily A member 4),3,-0.604
COA1 (cytochrome c oxidase assembly factor 1),1,-0.246
COA1 (cytochrome c oxidase assembly factor 1),2,0.592
COA1 (cytochrome c oxidase assembly factor 1),3,1.15
AMY2A (amylase alpha 2A),1,-0.485
AMY2A (amylase alpha 2A),2,-0.41
AMY2A (amylase alpha 2A),3,-0.911
LIMD2 (LIM domain containing 2),1,0.398
LIMD2 (LIM domain containing 2),2,0.313
LIMD2 (LIM domain containing 2),3,3.01 (active)
RPLP1P3 (ribosomal protein lateral stalk subunit P1 pseudogene 3),1,1.22
RPLP1P3 (ribosomal protein lateral stalk subunit P1 pseudogene 3),2,-0.444
RPLP1P3 (ribosomal protein lateral stalk subunit P1 pseudogene 3),3,-1.09
UHRF2 (ubiquitin like with PHD and ring finger domains 2),1,-0.198
UHRF2 (ubiquitin like with PHD and ring finger domains 2),2,-0.643
UHRF2 (ubiquitin like with PHD and ring finger domains 2),3,-1.14
BICRAL (BICRA like chromatin remodeling complex associated protein),1,-1.46
BICRAL (BICRA like chromatin remodeling complex associated protein),2,0.115
BICRAL (BICRA like chromatin remodeling complex associated protein),3,-0.521
DISP3 (dispatched RND transporter family member 3),1,0.105
DISP3 (dispatched RND transporter family member 3),2,-1.14
DISP3 (dispatched RND transporter family member 3),3,-0.181

4 entries from above, arranged by “total luciferase, z-score”, low to high:
target gene,siRNA no.,"total luciferase, z-score"
AMY2A (amylase alpha 2A),3,-0.911
AMY2A (amylase alpha 2A),1,-0.485
AMY2A (amylase alpha 2A),2,-0.41
COA1 (cytochrome c oxidase assembly factor 1),3,1.15

Continued.
target gene,siRNA no.,"total luciferase, z-score"
SLC44A2,1,2.17
SLC44A2,2,0.466
SLC44A2,3,-0.551
CAMK4 (calcium/calmodulin dependent protein kinase IV),1,0.711
CAMK4 (calcium/calmodulin dependent protein kinase IV),2,-0.814
CAMK4 (calcium/calmodulin dependent protein kinase IV),3,-0.792
MAGED1 (MAGE family member D1),1,-0.0946
MAGED1 (MAGE family member D1),2,0.0478
MAGED1 (MAGE family member D1),3,-1.93
METTL24 (methyltransferase like 24),1,-0.574
METTL24 (methyltransferase like 24),2,-0.0978
METTL24 (methyltransferase like 24),3,2.92
FBXO24 (F-box protein 24),1,-0.305
FBXO24 (F-box protein 24),2,-0.592
FBXO24 (F-box protein 24),3,0.22
ZFP36 (ZFP36 zinc finger CCCH-type),1,1.61
ZFP36 (ZFP36 zinc finger CCCH-type),2,-0.6
ZFP36 (ZFP36 zinc finger CCCH-type),3,0.0197
LPIN1 (lipin 1),1,-0.346
LPIN1 (lipin 1),2,-0.107
LPIN1 (lipin 1),3,-0.678
